Data published in PubChem BioAssay AID1487 (National Center for Advancing Translational Sciences (NCATS), 2009).
Among all 200,000 compounds or so, about 25 (0.01%) were called active. The shares of active, inactive and inconclusive entries below differ from those in the screen. Calls come from the whole dose curve; as a rule, active = well fitted inhibition curve with a large enough effect in the signal ratio, with a control signal flat (not every such curve was filed as active); inconclusive = small, poorly fitted or top-dose-only effect, or effect the other way, or a change in a side signal; inactive = flat fitted curve, though single readings scatter; the % refers to the signal ratio. A potency beside an inconclusive call is a rough fit, not a confirmed value.

Assay: qHTS Assay for Modulators of Lamin A Splicing
Settings: HeLa LMNA splicing GFP/RFP minigene ratio, 48 h; ratio change, negative = inhibition: at 46.1 µM (top of the series) unless noted
Summary of the method: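 Read-out is the ratio of GFP to DsRed2 object intensity, acquired by 488 nm laser-scanning cytometry on HeLa lamin A-EGFP minigene reporter cells. Compound incubation 48 hrs at 37 °C in Opti-MEM with 2% FBS; DMSO 0.5% final.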
% is set by controls: 0 for no effect and ±100 for the full control effect; potency is the fitted concentration of half-maximal effect.

Compound	ratio change, negative = inhibition	Potency
O=C(O)C1CC=CCC1C(=O)NNc1ccccc1 (configuration not stated)	inconclusive: 5.48% [at 46 µM]	
C=CCN(CC=C)C(=S)NC(=O)/C=C/c1ccc(OC)cc1	inconclusive: 14%	
CC(=O)NC(c1ccccc1)c1c(O)ccc2ccccc12 (configuration not stated)	inconclusive: -34.4% [at 46 µM]	
Oc1ccc(C2CNCCc3c2cc(O)c(O)c3Cl)cc1 (configuration not stated)	inconclusive: -34.4%	
Cc1cc(C)nc(-n2nc(C)c3c2NC(=O)CC3c2ccccc2OC(C)C)n1 (configuration not stated)	inactive	
CC1CC(C)(C)CC2(C1)NC(=S)N(c1ccccc1)N2 (configuration not stated)	inconclusive: 30.6%	
Cc1ccc(C(=O)COc2nc(C)cc(C)c2C#N)cc1	inconclusive: 30.1%	
CC(=O)c1sc(NC(=O)CCOc2ccccc2)nc1C	inconclusive: -33.6% [at 46 µM]	
CCN(CC)S(=O)(=O)c1cc([N+](=O)[O-])ccc1NNC(=O)Nc1ccccc1	inconclusive: 3.82%	
CCOC(=O)c1ccc2c(c1)nc(SCC(=O)N1CCOCC1)n2CC	inconclusive: 36.4% [at 46 µM]	
COC(=O)c1ccc(CSc2nc3c([nH]c4ccccc43)c(=O)n2-c2cccc(OC)c2)o1	inactive	
[O-][n+]1cccc2c(Br)cc(Br)c(O)c21	inconclusive: 9.27% [at 9.22 µM]	
CC(=O)Nc1ccc(S(=O)(=O)N2CCN(c3cc(C)ccc3C)CC2)cc1		inconclusive: 35.5 µM [fluorescent, single point]
O=C(CN1C(=O)C2CCCCN2c2ccc(C(=O)N3CCCC3)cc21)NCc1ccccc1 (configuration not stated)	inactive	
CN(C)c1ccc(CNc2nc(-c3ccco3)nn2S(=O)(=O)c2ccc(Cl)cc2)cc1	inconclusive: 2.86% [at 46 µM]	
O=c1c([N+](=O)[O-])c(NC2CCCCC2)c2ccccc2n1-c1ccccc1	inactive	
CCn1nc(NC(=O)c2cccs2)c2cc3ccccc3nc21		inconclusive: 31.6 µM [inhibitor, single point]
S=C(NCCC(c1ccccc1)c1ccccc1)Nc1ccc(Cl)cc1		inconclusive: 35.5 µM [cytotoxic, partial curve]
CCc1ccc[n+](-c2[nH]c(=O)sc2/C=N/NC([S-])=Nc2ccccc2)c1	inactive	
COC(=O)c1ccc(C(=O)OC)c(NS(=O)(=O)c2ccc(NC(C)=O)cc2)c1	inactive	
CCCn1cc(S(=O)(=O)c2cccc(Cl)c2)c(=O)c2cc(F)c(N3CCN(CC)CC3)cc21	inactive	
CCOC(=O)N1CCN(c2cc(=O)n(-c3ccccc3C)c(=O)[nH]2)CC1	inconclusive: 19.6% [at 9.22 µM]	

2 consecutive records from above, for reference:
Compound	ratio change, negative = inhibition	Potency
CC(=O)NC(c1ccccc1)c1c(O)ccc2ccccc12 (configuration not stated)	inconclusive: -34.4% [at 46 µM]	
Oc1ccc(C2CNCCc3c2cc(O)c(O)c3Cl)cc1 (configuration not stated)	inconclusive: -34.4%	
